Experimental data reported in US8890089B2, “Faecal markers” (Aberystwyth University, priority 2009, dated 2014).
Some compounds share one wording; it may come from a single statement.

Assay: Fluorescence of faeces from sheep fed marker supplement
Assay type: in vivo
Conditions: 2 g/d marker for one week on concentrate and barley straw
Protocol: A number of chlorophyll breakdown products was tested for use as markers of faecal contamination on a range of diets. Eight Cheviot sheep were fed either: i) fresh grass and clover, ii) grass silage, iii) hay or iv) concentrate and barley straw. Each diet was offered to two sheep for a period of two weeks before diet change over in a duplicate 4×4 Latin Square design. Samples of feed were collected during the whole feeding period and bulked whilst samples of faeces were taken at the end of the period. Samples were measured for chlorophyll and its derivatives using HPLC. Fluorescence emission spectra were measured directly on the faeces. The samples were placed into sample cuvettes, which exposed a flat circular surface with a diameter of 5 cm for the measurements. The fluorescence emission spectra were measured with excitation at 382 nm and 430 nm, using an optical bench system, suitable for solutions and solid samples. The excitation light was generated by a 300 W Xenon light source (Oriel 6258, Oriel Corporation, Stratford, Conn.) and passed through a 10 nm bandwidth interference filter (Oriel 59920) and (Oriel 59295). The light was directed onto the samples at an angle of about 45°. The spectra were collected by an imaging spectrograph (Acton SP-150, Acton Research Corporation, Acton, Mass.) connected to a sensitive charge coupled device (CCD-camera) (Roper Scientific NTE/CCD-1340/400-EMB, Roper Scientific, Trenton, N.J.). Cut-off filters at 400 nm (for the 382 nm excitation) (Melles Griot 03FCG049) and 475 nm (for the 430 nm excitation) (Melles Griot 03FCG068) were positioned in front of the spectrograph slit to suppress excitation light reflected from the samples. […] All the samples were measured twice and an average was used in the analysis. […] To ensure stable illumination, the emission intensity at 440 nm at excitation 382 nm was measured from a stable fluorescence standard of washable plastic (Ciba, Basel, Switzerland) before and after the measurements. Fluorescence images were collected with the same system, slightly modified. […]

Fluorescence in faeces, produced fluorescence in faeces:
iron chlorophyllin [Fe]
zinc chlorophyllin [Zn]
magnesium chlorophyllin [Mg]
